From article PMC12635257

The chains behind the UniProt entries cited, without tags or fusion partners. Where a name states a change or a piece, a line headed by the entry shows the natural chain unless it says otherwise.
UniProt Q9HCE5: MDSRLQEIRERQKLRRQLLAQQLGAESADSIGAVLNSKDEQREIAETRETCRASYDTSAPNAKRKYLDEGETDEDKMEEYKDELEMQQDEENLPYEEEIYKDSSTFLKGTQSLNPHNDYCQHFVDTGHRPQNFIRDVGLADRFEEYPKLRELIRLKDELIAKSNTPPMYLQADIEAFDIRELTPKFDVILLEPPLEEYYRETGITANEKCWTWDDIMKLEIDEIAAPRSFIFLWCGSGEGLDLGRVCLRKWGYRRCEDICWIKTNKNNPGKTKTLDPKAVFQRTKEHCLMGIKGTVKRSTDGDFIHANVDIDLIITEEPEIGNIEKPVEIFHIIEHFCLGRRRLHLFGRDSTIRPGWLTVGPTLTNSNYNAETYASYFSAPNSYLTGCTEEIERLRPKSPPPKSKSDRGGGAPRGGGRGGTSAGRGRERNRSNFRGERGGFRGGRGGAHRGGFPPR
UniProt Q16637: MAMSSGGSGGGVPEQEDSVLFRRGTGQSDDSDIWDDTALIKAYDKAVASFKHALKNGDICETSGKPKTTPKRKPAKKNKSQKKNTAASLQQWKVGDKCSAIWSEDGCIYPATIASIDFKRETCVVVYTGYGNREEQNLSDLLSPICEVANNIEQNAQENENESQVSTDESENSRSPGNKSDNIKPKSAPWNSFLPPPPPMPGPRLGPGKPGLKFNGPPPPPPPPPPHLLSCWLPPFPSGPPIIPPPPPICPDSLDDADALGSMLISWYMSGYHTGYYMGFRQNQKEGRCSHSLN

Target: Flag-tagged arginine methylation-deficient (RK) mutant METTL14 of the co-IP of Fig. 2C (human) (UniProt Q9HCE5)
Test: co-IP; HeLa cells transfected with Flag-tagged METTL14 (WT, RK, 1-400), METTL3 or WTAP; endogenous SMN detected by western blot; co-IP buffer 50 mM Tris-HCl pH 7.4, 150 mM NaCl, 15 mM MgCl2, 5 mM EDTA, 0.1% NP-40; also in siPRMT1 or siPRMT5 cells and in cells treated with MS023, EPZ015666 or both

binding: no binding
Substance: SMN (endogenous) (from UniProt Q16637 1-294)

Results are given in words; binding and its absence hold for the method and conditions named. In cells and extracts the contact can be indirect.
